# Reference: patent US20240108740A1, “THERAPEUTIC COMPOSITIONS INCLUDING SPN10 AND USES THEREOF” (Stealth BioTherapeutics Inc., priority 2022, published 2024)
# Residues, ends and D or L forms follow the SMILES beside them.
# Test system: high-fat fed rats
# Assay: Example 33: ROS production and redox state in rats fed a high-fat diet
# Type: in vivo, rat
smiles,measurement,value
"N=C(N)NCCC[C@H](NC(=O)[C@@H](N)Cc1c[nH]c2ccccc12)C(=O)N[C@@H](Cc1c[nH]c2ccccc12)C(=O)N[C@@H](CCCCN)C(N)=O [SPN10, H-L-Trp-L-Arg-L-Trp-L-Lys-NH2] (H-WRWK-NH2)",basal rates of pyruvate/malate- or palmitoyl-carnitine-supported respiration,unaffected
